Assay results as given in PubChem BioAssay AID1508600 (Functional Genomics Laboratory (NCATS/FGL), 2020).
Among all 53,000 sequences or so, about 3,700 (7%) were called active.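 The calls were made as follows: active = gene knockdowns whose robust z-score for IL-1 alpha signal is at least 2 or at most -2, so actives lie on both sides; inactive = the rest.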 The list shows a part of the results.

Test: Components of the Cytosolic LPS Sensing Pathway: Gene Identification via Genome-wide siRNA Screen;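 also: robust z of the log signal after scaling to non-targeting control siRNA wells of the plate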
Settings: RAW264.7 macrophages, IL-1a HTRF, actives lie on both sides, screened at 100 nM (by protocol), cells primed 5 h with Pam3CSK4 first
How it was run: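 IL-1a HTRF of supernatants after 24 hour LipidA transfection of Pam3CSK4-primed (5 hours) RAW264.7 cells, 48h post-siRNA transfection (100 nM). Scores: percent of plate negative-control median, then log-based robust z-score.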

Sequence | z-score
GCCAGUUGAAGGUGAUUAATT against Vmn1r35 | inactive: 0.886
GCUUGGUGUGGAAUUUUUUTT against Ppp2r1a | inactive: 0.125
GGAUCUGGAAUCACUGUUUTT against Lmnb2 | inactive: -0.451
CCACGGGCCAAAUGAAGACTT against Cd27 | inactive: -0.0262
CCACCUUCCUAUGUUUGUATT against Ebf2 | active: 3.73
GGCUGUUCGCUGCUACGAATT against Kdm6a | inactive: 0.493
GCCCAAAAGUAUAAACCAGTT against Peg12 | inactive: 0.318
GGUCUCCCACCCAACGAUATT against Kbtbd2 | inactive: 0.228
GGAUUCAUCAUCUGUUACUTT against Rit1 | inactive: 0.529
GGAUAUUCCUGGACUGACATT against Rps6 | inactive: -0.996
CGUGUACAUAGACCAUAUATT against Olfr453 | inactive: 0.199
CCUCAAGAGAGCUACCGCATT against Tex48 | inactive: -0.898
GCUCAUCAUGUGAAACUUUTT against Sar1b | inactive: 1.01
GGCAGUACUGUCCAGAUGATT against Gsdma2 | active: -2.12
GAAAACAGAAAACCCACAGTT against Vmn1r190-ps | inactive: 0.153
CCAUCUACGUGGGACACAATT against Atp11a | inactive: 0.976
CCAGUUUGGACAUUGGAAATT against Cyp26b1 | inactive: 0.22
GGCAGUAGCCUUGUCUGUCTT against Prrx2 | inactive: -1.42
CCUGGAGAGCAUCCUUCUUTT against Olfr382 | inactive: 0.77
CCACAACUAUGAGUCUAUUTT against Ech1 | active: 2.05
GCACUUUGCCAGAUAUAACTT against Glipr1 | inactive: -1.16
GGAAACACUUGAACAAAGATT against Tph2 | inactive: 0.518

Sequence | z-score
GGUAAGUUAAAUGAUGACATT against Ccdc148 | inactive: -0.896
CCUUCACUAUAUUCAACUUTT against Olfr479 | inactive: 0.734
GCCCAUGGGAUGUUCAACUTT against Nos1 | inactive: -1.86
CCUCUGUUAUGGUAAUUCUTT against Olfr1323 | inactive: -0.371
GCUAAGGCUUGGAAUGACATT against Maged1 | inactive: -0.105
GCCUCUGUUCUGACCAUAGTT against Gm128 | inactive: 0.505
GGAUGUAGCACUCAAACUUTT against Usp6nl | inactive: -0.102
GCGAAAAACGGUCACCUAUTT against Tom1l2 | inactive: 0.407
GGUCAUUGGCUUGAGUGCATT against Alppl2 | inactive: -1.7
CGGCAUCUAAUCAGUUUAATT against Farp1 | inactive: 1.25
GGCGUAAUUUUGAUUCAGUTT against Fam53a | inactive: -0.126
UUUCAAUCUGUAGCUUUCCTT against Krt86 | inactive: 0.071
GGACGUGUAGCUUGGAAUATT against Rnf26 | active: 5.33
GGACAUCGUGCAAUACGCATT against Vangl1 | inactive: 0.754
GACCUACCAGAACAUCACUTT against Zfp825 | inactive: 0.241
CCAAACGUGCCUCUAAGUUTT against Vkorc1 | inactive: 0.964
CGUAAACAUAUAGGACUGGTT against Ssty1 | inactive: 0.0955
GGGAGGUCAACCUUUUAAUTT against Cyp2j5 | inactive: -1.16
CGUUUACCAGGAUAUCCAATT against Mmp27 | inactive: 1.64
GGAAAAUUUUGAAAGACCUTT against Atf1 | inactive: -0.347
GCUCACAACAUGAGAGUCATT against Atp6v0e | inactive: -0.539
GGAAAAUUCCAUUCCAAAGTT against Rbm34 | inactive: -0.0226

Sequence | z-score
GGUACCAUACGACAUUAAUTT against Slc25a36 | inactive: 0.275
GCCAGCAUAUGGACUACAATT against Ccnt2 | inactive: -0.977
GGAUCACAUCUAUGAGAAGTT against Fdx1 | inactive: 0.516
GCAAUCGUAAGUAAAUAGATT against Gas1 | inactive: -1.64
GCAAAUGUCUCGGAAAGAATT against Cdk11b | active: -2.18
GCGCAAAGUCGAAUCCAGUTT against Vgll1 | inactive: -0.156
GCGAUUACCUGGAUAUCGGTT against Acvrl1 | inactive: -1.25
GCCUUAAUGAACCAGCACCTT against Tek | inactive: 0.561
GGGCCAUGGAUAAGAAAAATT against Psmc5 | active: -2.61
GGGCACAGGCACUAAAAUGTT against Sbk1 | inactive: 0.101
CGACGAGAAAAUCACUCAGTT against Nkx6-1 | inactive: -0.321
GGAAAUCACCAACUUGGCCTT against Pou3f3 | inactive: -0.0208
CGUGAUGUGAACGGAGGUATT against Six2 | inactive: 0.639
GCAGAGCUAACCUCAUUUGTT against Gmeb2 | inactive: -0.148
AUCGUAUUGCUCUUUUACGTT against Pdp2 | inactive: -1.52
GGUUCUCCAGUGGUCUGACTT against Rab29 | inactive: -0.44
CCCAGGAACUAUGAGUUGUTT against Rnf31 | inactive: -1.87
GGGACAUUUCUAUUAGAAUTT against Snx24 | inactive: -0.95
CCUAAUAAGCUUUAAAGGATT against Mrm1 | inactive: 0.171
GCUCCUACCCAAGGUUUAATT against Arl9 | inactive: 0.6
GGUACUUUCGCAUCCUGCATT against Rnaseh2b | inactive: -0.397
GGCCUUUAGUGCCAUUGUUTT against Rhno1 | inactive: -0.423

As entered above:
Under z-score, CGUGAUGUGAACGGAGGUATT against Six2 shows inactive: 0.639
Under z-score, CCCAGGAACUAUGAGUUGUTT against Rnf31 shows inactive: -1.87

Next results follow.

Sequence | z-score
GGCUGAAGGCAAAUCAAGATT against Cuzd1 | inactive: -0.224
GCCGUUCUCGGGUAAUGUUTT against Cpeb2 | inactive: -1.49
GGCCCUGAGAGAAACAAGATT against Ly9 | inactive: -1.62
GCCAGGCUUACAAUAGUCCTT against Tpsg1 | inactive: -1.84
GGCAAGAAAGAAAGGCCAATT against Rps23 | inactive: 0.00872
GUGAUGAUUGAGAGAAUGATT against Pla2g2e | inactive: -1.04
CGAGACACACCUAAAUAUGTT against Nop58 | inactive: -0.608
CCUAUUCCAACAAUUGGUUTT against Trim23 | inactive: -0.0743
GGAAGUGGCUGUUGCUUCUTT against Lcn8 | inactive: -0.111
GGACUACAUAAGGAAGGUUTT against Ccdc130 | inactive: 1.64
GGCCUCCUUUGAUCAUGCGTT against Zfp219 | inactive: 1.78
GGACCAAGGAGCAUUGAAATT against Fkbp7 | inactive: 1.06
GGUAGAAUGGUUUUGAAGATT against Rnf130 | inactive: -0.0426
GGUGUUCACACUCUUUUCUTT against Laptm4b | inactive: 0.362
GCUCUCAUACACGGUGGAATT against Ros1 | inactive: -0.272
GAAGCUUUGGUGGUACUAATT against Krtap19-2 | inactive: 0.174
GGUGGACACUCUUGACCUATT against Zfp235 | inactive: -0.418
GGAAUCACUCAAAGCUUAATT against Dst | inactive: -1.11
GGCACAAGUCUCCUUGUAATT against Vamp7 | inactive: -0.858
GGAAGAGAAAGACCUGAGATT against Glra1 | inactive: -0.0808
CCUGGACGAGUGCUGAAGATT against Cr1l | inactive: 0.861
GGCUUUAAUUGUGAGAUGCTT against Il1rl1 | inactive: -1.6

32 entries from above, reformatted:
Sequence,z-score
GGAUCUGGAAUCACUGUUUTT against Lmnb2,inactive: -0.451
CCACCUUCCUAUGUUUGUATT against Ebf2,active: 3.73
GGUCUCCCACCCAACGAUATT against Kbtbd2,inactive: 0.228
CCUCAAGAGAGCUACCGCATT against Tex48,inactive: -0.898
GCUCAUCAUGUGAAACUUUTT against Sar1b,inactive: 1.01
GGCAGUACUGUCCAGAUGATT against Gsdma2,active: -2.12
GAAAACAGAAAACCCACAGTT against Vmn1r190-ps,inactive: 0.153
CCACAACUAUGAGUCUAUUTT against Ech1,active: 2.05
GCACUUUGCCAGAUAUAACTT against Glipr1,inactive: -1.16
CCUCUGUUAUGGUAAUUCUTT against Olfr1323,inactive: -0.371
GCCUCUGUUCUGACCAUAGTT against Gm128,inactive: 0.505
GCGAAAAACGGUCACCUAUTT against Tom1l2,inactive: 0.407
GGACAUCGUGCAAUACGCATT against Vangl1,inactive: 0.754
CCAAACGUGCCUCUAAGUUTT against Vkorc1,inactive: 0.964
GCUCACAACAUGAGAGUCATT against Atp6v0e,inactive: -0.539
GGAAAAUUCCAUUCCAAAGTT against Rbm34,inactive: -0.0226
GGUACCAUACGACAUUAAUTT against Slc25a36,inactive: 0.275
GCAAUCGUAAGUAAAUAGATT against Gas1,inactive: -1.64
GCAAAUGUCUCGGAAAGAATT against Cdk11b,active: -2.18
GGAAAUCACCAACUUGGCCTT against Pou3f3,inactive: -0.0208
CGUGAUGUGAACGGAGGUATT against Six2,inactive: 0.639
AUCGUAUUGCUCUUUUACGTT against Pdp2,inactive: -1.52
CCUAAUAAGCUUUAAAGGATT against Mrm1,inactive: 0.171
GCCGUUCUCGGGUAAUGUUTT against Cpeb2,inactive: -1.49
GGCCCUGAGAGAAACAAGATT against Ly9,inactive: -1.62
GCCAGGCUUACAAUAGUCCTT against Tpsg1,inactive: -1.84
CGAGACACACCUAAAUAUGTT against Nop58,inactive: -0.608
GGACUACAUAAGGAAGGUUTT against Ccdc130,inactive: 1.64
GGACCAAGGAGCAUUGAAATT against Fkbp7,inactive: 1.06
GGCACAAGUCUCCUUGUAATT against Vamp7,inactive: -0.858
CCUGGACGAGUGCUGAAGATT against Cr1l,inactive: 0.861
GGCUUUAAUUGUGAGAUGCTT against Il1rl1,inactive: -1.6

Further records:

Sequence | z-score
GGUACAGAUUGUAAACAUUTT against Crebrf | inactive: 0.872
GGAUUGGCUCAAAGAUAUATT against Prss16 | inactive: 0.221
GGAAAAUCCAUCUGGCCGATT against Myoc | inactive: 0.405
GCACACAAAACAUCUAACCTT against Raver2 | inactive: 0.219
GCUUACCAGAUUGUAUGUATT against Mrgpra1 | inactive: 0.533
CGAACAGGUAAAUGUGAGCTT against Spag16 | inactive: 0.893
GGGUUUUUUUAGAGAGAUUTT against Susd3 | active: -2.11
GGGUAUAGAGUCAAUCUGATT against Gfm2 | inactive: -0.381
GGAAGGUUUCAUCUUCAAATT against Hsf2 | inactive: 0.719
CCUGAGAGUAACUCUGAGGTT against Mon1b | inactive: 1.32
GGGAAGCUUCUGUGAGUUUTT against Stag3 | inactive: 1.81
CCGACUUGGAUAUUGCAUATT against Saraf | inactive: -1.14
GGCAUCUAGGAGAACCUCATT against Insig2 | inactive: -1.01
GGAUUCAGUGGAAAUCUUUTT against Gjc2 | inactive: -0.293
GGGCUACUCAAUGUCUUAUTT against Adgrd1 | inactive: 1.11
GCAUUCGGUACUUAUUUGATT against Ugt2b35 | inactive: -0.317
GCUACUCGCGUUUAAUUUUTT against Slc9a9 | inactive: -0.238
GCACUAGCUCUUCACCUCUTT against Glt1d1 | inactive: -0.109
GGAGGUCGAGCUAUGUUUATT against Psmd11 | inactive: -1.95
